Reference: patent publication US20070060566A1, “Benzazepine derivatives as histamine h3 antagonists” (priority 2003, published 2007)
Some of these results come from one statement about several compounds together.

Sequences of proteins named here, by UniProt entry; tags and fusion partners are left off. A change or cut given only in a name is not applied to a line headed by its entry.
UniProt Q9Y5N1: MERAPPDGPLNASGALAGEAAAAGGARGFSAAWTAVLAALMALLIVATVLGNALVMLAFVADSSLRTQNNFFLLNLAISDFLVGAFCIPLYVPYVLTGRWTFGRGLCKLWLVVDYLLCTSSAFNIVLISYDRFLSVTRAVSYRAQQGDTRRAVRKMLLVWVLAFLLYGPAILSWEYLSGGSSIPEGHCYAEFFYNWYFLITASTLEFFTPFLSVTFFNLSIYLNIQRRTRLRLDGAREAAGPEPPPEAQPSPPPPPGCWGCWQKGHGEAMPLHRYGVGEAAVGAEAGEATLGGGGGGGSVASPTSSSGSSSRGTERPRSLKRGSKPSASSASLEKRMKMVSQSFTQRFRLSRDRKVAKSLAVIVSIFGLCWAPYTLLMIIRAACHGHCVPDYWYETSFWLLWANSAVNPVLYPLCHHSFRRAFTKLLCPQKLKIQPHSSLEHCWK

These molecules were tested against T1, human histamine H3 receptor (Homo sapiens, UniProt Q9Y5N1) (assay: Histamine H3 functional antagonist assay ([35S]GTPγS SPA on membranes)). Details: membranes of CHO K1 cells expressing human histamine H3; histamine 0.3 μM.
T1 construct: expressed in transfected cells; host or cells: CHO K1 cells carrying the pSwitch regulatory plasmid, transfected with pGeneH3, induced with mifepristone; clone 3H3
Format: biochemical

Antagonism (pKb), > 6.5 pKb:
O=C(Nc1ccc2c(c1)CCN(C1CCC1)CC2)c1cnnn1-c1ccccc1.O=C(O)C(F)(F)F [Example 194, N-(3-Cyclobutyl-2,3,4,5-tetrahydro-1H-3-benzazepin-7-yl)-1-phenyl-1H-1,2,3-triazole-5-carboxamide trifluoroacetate]
O=C(Nc1ccc2c(c1)CCN(C1CCC1)CC2)N1CCC(Oc2ccccn2)CC1 [Example 170, N-(3-Cyclobutyl-2,3,4,5-tetrahydro-1H-3-benzazepin-7-yl)-4-(2-pyridinyloxy)-1-piperidinecarboxamide]
Cc1cc(C(=O)Nc2ccc3c(c2)CCN(C2CCC2)CC3)no1 [Example 56, N-(3-Cyclobutyl-2,3,4,5-tetrahydro-1H-3-benzazepin-7-yl)-5-methyl-3-isoxazolecarboxamide]
O=C(Nc1ccc2c(c1)CCN(C1CCC1)CC2)C1COc2ccccc2C1.O=C(O)C(F)(F)F (stereo not shown) [Example 220, N-(3-Cyclobutyl-2,3,4,5-tetrahydro-1H-3-benzazepin-7-yl)-3,4-dihydro-2H-chromene-3-carboxamide trifluoroacetate]
O=C(Nc1ccc2c(c1)CCN(C1CCC1)CC2)c1cnc(N2CCOCC2)cn1 [Example 111, N-(3-Cyclobutyl-2,3,4,5-tetrahydro-1H-3-benzazepin-7-yl)-5-(4-morpholinyl)-2-pyrazinecarboxamide]
O=C(Nc1ccc2c(c1)CCN(C1CCC1)CC2)c1ccc(Oc2ccccc2)cc1.O=C(O)C(F)(F)F [Example 249, N-(3-Cyclobutyl-2,3,4,5-tetrahydro-1H-3-benzazepin-7-yl)-4-(phenyloxy)benzamide trifluoroacetate]
Cc1nn(-c2ccccc2)nc1C(=O)Nc1ccc2c(c1)CCN(C1CCCC1C)CC2.O=C(O)C(F)(F)F (stereo not shown) [Example 279, 5-Methyl-N-[3-(2-methylcyclopentyl)-2,3,4,5-tetrahydro-1H-3-benzazepin-7-yl]-2-phenyl-2H-1,2,3-triazole-4-carboxamide trifluoroacetate]
Cc1cc(C(=O)Nc2ccc3c(c2)CCN(C2CCC2)CC3)c(C)o1 [Example 65, N-(3-Cyclobutyl-2,3,4,5-tetrahydro-1H-3-benzazepin-7-yl)-2,5-dimethyl-3-furancarboxamide]
N#Cc1ccc(-c2ccc(C(=O)Nc3ccc4c(c3)CCN(C3CCC3)CC4)cc2)cn1 [Example 34, 4-(6-Cyano-3-pyridinyl)-N-(3-cyclobutyl-2,3,4,5-tetrahydro-1H-3-benzazepin-7-yl)benzamide]
Cn1ncc(C(=O)Nc2ccc3c(c2)CCN(C2CCC2)CC3)n1.O=C(O)C(F)(F)F [Example 192, N-(3-Cyclobutyl-2,3,4,5-tetrahydro-1H-3-benzazepin-7-yl)-2-methyl-2H-1,2,3-triazole-4-carboxamide trifluoroacetate]
O=C(Nc1ccc2c(c1)CCN(C1CCC1)CC2)c1ccc2nsnc2c1.O=C(O)C(F)(F)F [Example 236, N-(3-Cyclobutyl-2,3,4,5-tetrahydro-1H-3-benzazepin-7-yl)-2,1,3-benzothiadiazole-5-carboxamide trifluoroacetate]
O=C(Nc1ccc2c(c1)CCN(C1CCC1)CC2)C1COc2ccccc2O1.O=C(O)C(F)(F)F (stereo not shown) [Example 237, N-(3-Cyclobutyl-2,3,4,5-tetrahydro-1H-3-benzazepin-7-yl)-2,3-dihydro-1,4-benzodioxin-2-carboxamide trifluoroacetate]
COc1cc(C(=O)Nc2ccc3c(c2)CCN(C2CCC2)CC3)nc2ccccc12.O=C(O)C(F)(F)F [Example 235, N-(3-Cyclobutyl-2,3,4,5-tetrahydro-1H-3-benzazepin-7-yl)-4-(methyloxy)-2-quinolinecarboxamide trifluoroacetate]
O=C(Nc1ccc2c(c1)CCN(C1CCC1)CC2)c1cnn2ccccc12.O=C(O)C(F)(F)F [Example 181, N-(3-Cyclobutyl-2,3,4,5-tetrahydro-1H-3-benzazepin-7-yl)pyrazolo[1,5-a]pyridine-3-carboxamide trifluoroacetate]
O=C(Nc1ccc2c(c1)CCN(C1CCC1)CC2)c1ccc2c(c1)OCO2.O=C(O)C(F)(F)F [Example 177, N-(3-Cyclobutyl-2,3,4,5-tetrahydro-1H-3-benzazepin-7-yl)-1,3-benzodioxole-5-carboxamide trifluoroacetate]
O=C(Nc1ccc2c(c1)CCN(C1CCC1)CC2)c1cn(CC(F)(F)F)nn1.O=C(O)C(F)(F)F [Example 213, N-(3-Cyclobutyl-2,3,4,5-tetrahydro-1H-3-benzazepin-7-yl)-1-(2,2,2-trifluoroethyl)-1H-1,2,3-triazole-4-carboxamide trifluoroacetate]
O=C(Nc1ccc2c(c1)CCN(C1CCC1)CC2)c1ccc2occc2c1.O=C(O)C(F)(F)F [Example 223, N-(3-Cyclobutyl-2,3,4,5-tetrahydro-1H-3-benzazepin-7-yl)-1-benzofuran-5-carboxamide trifluoroacetate]
O=C(Nc1ccc2c(c1)CCN(C1CCC1)CC2)c1ccc(-c2cccnc2)nc1 [Example 99, N-(3-Cyclobutyl-2,3,4,5-tetrahydro-1H-3-benzazepin-7-yl)-2,3′-bipyridine-5-carboxamide]
O=C(Nc1ccc2c(c1)CCN(C1CCC1)CC2)N1CCOc2ccccc21 [Example 166, N-(3-Cyclobutyl-2,3,4,5-tetrahydro-1H-3-benzazepin-7-yl)-2,3-dihydro-4H-1,4-benzoxazine-4-carboxamide]
O=C(Nc1ccc2c(c1)CCN(C1CCC1)CC2)c1ccc(-c2cncnc2)cn1 [Example 105, N-(3-Cyclobutyl-2,3,4,5-tetrahydro-1H-3-benzazepin-7-yl)-5-(5-pyrimidinyl)-2-pyridinecarboxamide]
O=C(Nc1ccc2c(c1)CCN(C1CCC1)CC2)c1ncoc1-c1ccccc1 [Example 72, N-(3-Cyclobutyl-2,3,4,5-tetrahydro-1H-3-benzazepin-7-yl)-5-phenyl-1,3-oxazole-4-carboxamide]
O=C(Nc1ccc2c(c1)CCN(C1CCC1)CC2)c1ccc(-c2cnccn2)cn1 [Example 106, N-(3-Cyclobutyl-2,3,4,5-tetrahydro-1H-3-benzazepin-7-yl)-5-(2-pyrazinyl)-2-pyridinecarboxamide]
O=C(Nc1ccc2c(c1)CCN(C1CCC1)CC2)N1CCc2ccccc2CC1 [Example 164, N-(3-Cyclobutyl-2,3,4,5-tetrahydro-1H-3-benzazepin-7-yl)-1,2,4,5-tetrahydro-3H-3-benzazepine-3-carboxamide]
O=C(Nc1cccnc1)Nc1ccc2c(c1)CCN(C1CCC1)CC2 [Example 137, N-(3-Cyclobutyl-2,3,4,5-tetrahydro-1H-3-benzazepin-7-yl)-N′-3-pyridinylurea]
CCc1c(C(=O)Nc2ccc3c(c2)CCN(C2CCC2)CC3)nnn1-c1ccccc1.O=C(O)C(F)(F)F [Example 207, N-(3-Cyclobutyl-2,3,4,5-tetrahydro-1H-3-benzazepin-7-yl)-5-ethyl-1-phenyl-1H-1,2,3-triazole-4-carboxamide trifluoroacetate]
O=C(Nc1ccc2c(c1)CCN(C1CCC1)CC2)c1cn(-c2ccccc2)nc1-c1ccccc1.O=C(O)C(F)(F)F [Example 243, N-(3-Cyclobutyl-2,3,4,5-tetrahydro-1H-3-benzazepin-7-yl)-1,3-diphenyl-1H-pyrazole-4-carboxamide trifluoroacetate]
N#Cc1ccc(NC(=O)Nc2ccc3c(c2)CCN(C2CCC2)CC3)cc1 [Example 130, N-(4-Cyanophenyl)-N′-(3-cyclobutyl-2,3,4,5-tetrahydro-1H-3-benzazepin-7-yl)urea]
Cc1nn(-c2ccccc2)c(C)c1C(=O)Nc1ccc2c(c1)CCN(C1CCC1)CC2.O=C(O)C(F)(F)F [Example 214, N-(3-Cyclobutyl-2,3,4,5-tetrahydro-1H-3-benzazepin-7-yl)-3,5-dimethyl-1-phenyl-1H-pyrazole-4-carboxamide trifluoroacetate]
O=C(Nc1ccc2c(c1)CCN(C1CCC1)CC2)c1cccc(N2CCCC2=O)c1 [Example 91, N-(3-Cyclobutyl-2,3,4,5-tetrahydro-1H-3-benzazepin-7-yl)-3-(2-oxo-1-pyrrolidinyl)benzamide]
O=C(Nc1ccc2c(c1)CCN(C1CCC1)CC2)C1CCCCC1 [Example 19, N-(3-Cyclobutyl-2,3,4,5-tetrahydro-1H-3-benzazepin-7-yl) cyclohexane carboxamide]
Cn1cc(C(=O)Nc2ccc3c(c2)CCN(C2CCC2)CC3)nn1 [Example 71, N-(3-Cyclobutyl-2,3,4,5-tetrahydro-1H-3-benzazepin-7-yl)-1-methyl-1H-1,2,3-triazole-4-carboxamide]
O=C(Nc1ccc2c(c1)CCN(C1CCC1)CC2)c1cccc(F)c1 [Example 28, N-(3-Cyclobutyl-2,3,4,5-tetrahydro-1H-3-benzazepin-7-yl)-3-fluorobenzamide]
O=C(Nc1ccc2c(c1)CCN(C1CCC1)CC2)N1CCc2ccccc2C1 [Example 150, N-(3-Cyclobutyl-2,3,4,5-tetrahydro-1H-3-benzazepin-7-yl)-3,4-dihydro-2(1H)-isoquinolinecarboxamide]
O=C(Nc1ccc2c(c1)CCN(C1CCC1)CC2)c1cccc(-c2cncnc2)c1 [Example 52, N-(3-Cyclobutyl-2,3,4,5-tetrahydro-1H-3-benzazepin-7-yl)-3-(5-pyrimidinyl)benzamide]
